PubChem BioAssay AID504774 | Drosophila RNAi Screening Center, 2011

- Screen: 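Genes required for cells to withstand methyl methanesulphonate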 (primary screen)
- Cells: Drosophila Kc167 cells
- Reagents: long dsRNA against Drosophila genes, about 0.25 µg dsRNA per well
- Duration: about 6 days: 3 days knock-down, then 3 days with or without MMS
- Challenge: methyl methanesulphonate 0.004% (w/v) for 3 days after knock-down
- Detection: 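ATP-dependent luminescence as a measure of live cells in MMS-exposed wells, quantile normalised within each plate, with replicate values also given as a mean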
- Scale: mean viability with MMS and viability with MMS: higher = more surviving cells after MMS
The screen tested about 23,000 reagents; this is a random part of those that have a named target and a result. 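Values are quantile-normalised luminescence on an arbitrary scale; higher means more cells surviving MMS.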

mean viability with MMS | viability with MMS, replicate 1 | viability with MMS, replicate 2 | target | DRSC id
3.48e6 | 4.00e6 | 3.88e6 | Jheh2 (GeneID 37181) | DRSC06530
3.40e6 | 3.85e6 | 3.82e6 | PpY-55A (GeneID 48532) | DRSC07513
3.65e6 | 4.16e6 | 4.12e6 | PpY-55A (GeneID 48532) | DRSC23328
3.58e6 | 4.03e6 | 4.09e6 | CG7156 (GeneID 42187) | DRSC16207
3.51e6 | 4.02e6 | 3.94e6 | zfh2 (GeneID 43795) | DRSC17178
3.44e6 | 3.88e6 | 3.92e6 | Pdhb (GeneID 43437) | DRSC14420
3.44e6 | 3.81e6 | 3.99e6 | pcx (GeneID 31204) | DRSC18186
3.39e6 | 3.75e6 | 3.96e6 | pcx (GeneID 31204) | DRSC18187
3.41e6 | 3.70e6 | 4.03e6 | pcx (GeneID 31204) | DRSC18188
3.45e6 | 3.84e6 | 3.98e6 | pcx (GeneID 31204) | DRSC18189
3.39e6 | 3.87e6 | 3.82e6 | pcx (GeneID 31204) | DRSC18190
3.56e6 | 4.02e6 | 4.06e6 | pcx (GeneID 31204) | DRSC18816
3.66e6 | 4.09e6 | 4.12e6 | Cad86C (GeneID 41302) | DRSC15587
3.44e6 | 3.93e6 | 3.91e6 | Cad86C (GeneID 41302) | DRSC15611
3.24e6 | 3.70e6 | 3.62e6 | Gnf1 (GeneID 40607) | DRSC12351
3.36e6 | 3.76e6 | 3.88e6 | ClpX (GeneID 42369) | DRSC15592
3.48e6 | 4.00e6 | 3.90e6 | alpha-Est10 (GeneID 40896) | DRSC12613
3.65e6 | 4.34e6 | 3.98e6 | gny (GeneID 34409) | DRSC02810
3.72e6 | 4.07e6 | 4.27e6 | CG5541 (GeneID 2768877) | DRSC19946
3.55e6 | 4.03e6 | 4.02e6 | CG14488 (GeneID 37030) | DRSC06460
3.57e6 | 4.12e6 | 3.97e6 | Rtca (GeneID 31175) | DRSC18517
3.38e6 | 3.87e6 | 3.82e6 | Jabba (GeneID 37164) | DRSC06521
3.44e6 | 3.83e6 | 3.93e6 | Ilp8 (GeneID 39909) | DRSC10076
3.60e6 | 4.06e6 | 4.10e6 | beat-IIIb (GeneID 35031) | DRSC02435
3.56e6 | 4.03e6 | 4.06e6 | Blimp-1 (GeneID 38638) | DRSC10496
2.67e6 | 3.34e6 | 3.34e6 | Nf-YC (GeneID 31622) | DRSC18272
3.60e6 | 4.18e6 | 4.00e6 | Nf-YC (GeneID 31622) | DRSC23106
3.51e6 | 4.01e6 | 3.95e6 | CG3038 (GeneID 30970) | DRSC18618
3.41e6 | 3.90e6 | 3.79e6 | l(2)27Cb (retired record) (GeneID 48760) | DRSC02758
3.66e6 | 4.36e6 | 3.92e6 | Gr77a (GeneID 117476) | DRSC11446
3.65e6 | 4.02e6 | 4.12e6 | dhd (GeneID 31444) | DRSC18761
3.56e6 | 4.01e6 | 4.04e6 | dmrt11E (GeneID 32291) | DRSC19715
3.44e6 | 3.81e6 | 4.01e6 | Mst84Db (GeneID 40888) | DRSC12542
3.55e6 | 3.93e6 | 4.14e6 | Mst84Db (GeneID 40888) | DRSC12598
3.66e6 | 4.27e6 | 4.22e6 | mRpL19 (GeneID 41028) | DRSC16367
3.73e6 | 4.14e6 | 4.27e6 | mRpL19 (GeneID 41028) | DRSC21618
3.41e6 | 3.91e6 | 3.81e6 | Cyp303a1 (GeneID 49165) | DRSC03300
3.36e6 | 3.77e6 | 3.77e6 | CG9698 (GeneID 43629) | DRSC16539
3.60e6 | 4.00e6 | 4.18e6 | CG8520 (GeneID 36357) | DRSC07206
3.69e6 | 4.25e6 | 4.10e6 | TRAM (GeneID 31042) | DRSC18178
3.66e6 | 4.23e6 | 4.06e6 | TRAM (GeneID 31042) | DRSC18651
3.50e6 | 3.92e6 | 4.02e6 | phyl (GeneID 36606) | DRSC07663
3.39e6 | 3.76e6 | 3.84e6 | to (GeneID 43036) | DRSC17086
3.61e6 | 4.16e6 | 4.04e6 | Mapmodulin (GeneID 37043) | DRSC06956
2.81e6 | 3.53e6 | 3.59e6 | SF2 (GeneID 53443) | DRSC16845
3.47e6 | 4.04e6 | 3.81e6 | CG30428 (GeneID 246608) | DRSC04041

An excerpt of the results above, as a working copy:
mean viability with MMS | viability with MMS, replicate 1 | viability with MMS, replicate 2 | target | DRSC id
3.39e6 | 3.76e6 | 3.84e6 | to (GeneID 43036) | DRSC17086
3.61e6 | 4.16e6 | 4.04e6 | Mapmodulin (GeneID 37043) | DRSC06956
